Assay results from article PMC4076837.
These are yes or no findings as the source states them, for the method shown. Binding seen in cells or lysates may run through a third protein. For some assays here: A result given as binding can be weak or reduced; the word gives no strength. Tags and fused reporters may be left off the sequences shown. One block for each molecule: values may come before it.

Tests used:
[1] = target: T1, GST–STBD1 NDel mutant (human (cDNA from HepG2 cells)) (UniProt O95210); test: pull-down; GST–STBD1 proteins (or GST alone) immobilised on glutathione–sepharose beads, incubated with mouse liver lysate for 90 min at 4°C; washed three times with lysis buffer; Western blot; only the target purified
T1 sequence: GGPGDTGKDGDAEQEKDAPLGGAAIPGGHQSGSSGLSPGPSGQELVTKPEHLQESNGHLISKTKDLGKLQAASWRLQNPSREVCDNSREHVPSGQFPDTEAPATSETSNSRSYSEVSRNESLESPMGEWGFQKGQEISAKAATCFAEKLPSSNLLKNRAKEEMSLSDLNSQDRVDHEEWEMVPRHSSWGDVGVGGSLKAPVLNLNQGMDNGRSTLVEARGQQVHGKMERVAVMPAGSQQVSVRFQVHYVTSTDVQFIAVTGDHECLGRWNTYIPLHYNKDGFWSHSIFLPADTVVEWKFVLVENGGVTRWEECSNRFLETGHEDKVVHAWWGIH

[2] = target: FLAG-tagged CAP (catabolite gene activator protein); test: co-IP; COS cells co-transfected with HA-STBD1 and FLAG-tagged constructs; anti-FLAG immunoprecipitates blotted; lysis buffer 25 mM Tris pH 7.5, 150 mM NaCl, 1% Triton X-100; 2 h at 4°C

binding [1]: binds
Molecule: endogenous GS (glycogen synthase) of mouse liver (enzyme)

binding [2]: no binding
B1: HA-tagged STBD1 (starch-binding domain-containing protein 1), wild type (protein, UniProt O95210 1-358)
chain: MGAVWSALLVGGGLAGALFVWLLRGGPGDTGKDGDAEQEKDAPLGGAAIPGGHQSGSSGLSPGPSGQELVTKPEHLQESNGHLISKTKDLGKLQAASWRLQNPSREVCDNSREHVPSGQFPDTEAPATSETSNSRSYSEVSRNESLESPMGEWGFQKGQEISAKAATCFAEKLPSSNLLKNRAKEEMSLSDLNSQDRVDHEEWEMVPRHSSWGDVGVGGSLKAPVLNLNQGMDNGRSTLVEARGQQVHGKMERVAVMPAGSQQVSVRFQVHYVTSTDVQFIAVTGDHECLGRWNTYIPLHYNKDGFWSHSIFLPADTVVEWKFVLVENGGVTRWEECSNRFLETGHEDKVVHAWWGIH
